Data from article PMC6474862.
Results are given in words; binding and its absence hold for the method and conditions named. In cells and extracts the contact can be indirect. Some binding calls cover weakened binding; strength is not graded here. Values belong to the molecule of their own block, whether it stands above or below them.

The chains behind the UniProt entries cited, without tags or fusion partners.
UniProt Q9HCE7: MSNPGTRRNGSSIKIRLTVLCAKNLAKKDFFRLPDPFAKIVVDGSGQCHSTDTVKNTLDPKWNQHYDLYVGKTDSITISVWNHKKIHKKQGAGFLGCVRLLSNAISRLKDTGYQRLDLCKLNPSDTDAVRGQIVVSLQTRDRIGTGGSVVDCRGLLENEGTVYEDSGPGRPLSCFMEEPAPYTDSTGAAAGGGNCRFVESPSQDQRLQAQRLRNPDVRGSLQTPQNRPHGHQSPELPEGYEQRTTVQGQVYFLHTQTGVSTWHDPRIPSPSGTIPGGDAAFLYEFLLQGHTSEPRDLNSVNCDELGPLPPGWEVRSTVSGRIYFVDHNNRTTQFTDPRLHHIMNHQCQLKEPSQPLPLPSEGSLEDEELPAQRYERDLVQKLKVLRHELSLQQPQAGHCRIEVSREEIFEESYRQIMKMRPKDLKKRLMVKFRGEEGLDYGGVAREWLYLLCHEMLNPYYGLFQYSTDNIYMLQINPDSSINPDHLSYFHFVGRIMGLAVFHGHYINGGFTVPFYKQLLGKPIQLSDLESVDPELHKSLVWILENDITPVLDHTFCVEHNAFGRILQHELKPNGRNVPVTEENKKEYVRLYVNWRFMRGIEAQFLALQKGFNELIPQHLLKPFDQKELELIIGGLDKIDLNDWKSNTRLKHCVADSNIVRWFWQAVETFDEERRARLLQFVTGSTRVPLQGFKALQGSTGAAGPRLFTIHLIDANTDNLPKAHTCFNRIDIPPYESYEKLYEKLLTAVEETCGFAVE

Tests used:
[1] = target: T1, Rho GTPase-activating protein 26 (ARHGAP26) (human (endogenous in SKOV3)) (UniProt Q9UNA1); assay: co-IP; SKOV3 whole-cell lysates incubated with 2 ug anti-ARHGAP26, anti-SMURF1 or normal IgG antibody and protein G-agarose beads at 4 C overnight; SDS-PAGE and blot with anti-SMURF1 or anti-ARHGAP26
T1 sequence: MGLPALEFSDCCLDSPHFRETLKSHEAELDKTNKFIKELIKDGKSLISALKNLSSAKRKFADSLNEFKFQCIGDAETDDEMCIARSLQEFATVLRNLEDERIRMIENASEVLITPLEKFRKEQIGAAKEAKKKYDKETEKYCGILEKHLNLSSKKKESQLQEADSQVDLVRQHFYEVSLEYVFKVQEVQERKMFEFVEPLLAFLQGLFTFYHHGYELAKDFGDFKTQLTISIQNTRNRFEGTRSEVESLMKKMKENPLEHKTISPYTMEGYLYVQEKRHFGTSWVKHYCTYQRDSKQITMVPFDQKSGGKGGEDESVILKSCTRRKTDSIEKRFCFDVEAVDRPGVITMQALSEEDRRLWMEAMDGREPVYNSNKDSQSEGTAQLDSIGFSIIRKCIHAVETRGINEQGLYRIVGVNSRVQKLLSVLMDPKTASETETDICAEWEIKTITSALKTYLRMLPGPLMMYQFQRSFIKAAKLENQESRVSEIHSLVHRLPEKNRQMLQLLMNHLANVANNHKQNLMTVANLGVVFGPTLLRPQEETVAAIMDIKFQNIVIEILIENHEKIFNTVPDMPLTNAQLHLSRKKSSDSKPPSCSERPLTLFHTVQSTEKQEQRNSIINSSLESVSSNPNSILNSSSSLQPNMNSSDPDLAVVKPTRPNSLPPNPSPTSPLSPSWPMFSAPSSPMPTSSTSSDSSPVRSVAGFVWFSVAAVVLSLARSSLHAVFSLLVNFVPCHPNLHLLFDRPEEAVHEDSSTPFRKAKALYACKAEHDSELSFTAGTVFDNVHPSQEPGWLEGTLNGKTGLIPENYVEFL

[2] = target: Smad ubiquitination regulatory factor 1 (SMURF1) (human (endogenous in SKOV3)) (UniProt Q9HCE7); assay: as above

binding [1]: binds
Molecule: Smad ubiquitination regulatory factor 1 (SMURF1) (from UniProt Q9HCE7 1-757) (enzyme)

binding [2]: binds
B1: Rho GTPase-activating protein 26 (ARHGAP26) (protein, UniProt Q9UNA1 1-814)
chain: T1 sequence
